Measurements published in the supplement of paper PMC4604168 (melanoma cell lines).
This is one part of the list. Many values rest on one well or one pass, so single values are uncertain.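 The apoptosis fraction was the count of cleaved-PARP antibody-stained nuclei relative to all DNA-stained nuclei, imaged in 1,536-well plates. Screening doses were set so most cells survived, and baseline and induced cleaved-PARP levels vary greatly across cell lines.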

What was measured:
Assay in all cases: cleaved PARP positive nuclei fraction relative to DMSO control; melanoma cells; higher = more apoptosis
Conditions in all cases: library dose: low library concentration; 72 h
MZ2-MEL = test system: MZ2-MEL
MeWo = test system: MeWo
RPMI7951 = test system: RPMI7951
RVH-421 = test system: RVH-421
SkMel28 = test system: SkMel28
SkMel2 = test system: SkMel2
SkMel30 = test system: SkMel30
UACC62 = test system: UACC62
WM115 = test system: WM115
WM1716 = test system: WM1716
WM1745 = test system: WM1745
WM3526 = test system: WM3526
WM3619 = test system: WM3619
WM451Lu = test system: WM451Lu

SMILES	cleaved PARP positive nuclei fraction (MZ2-MEL) [%]	cleaved PARP positive nuclei fraction (MeWo) [%]	cleaved PARP positive nuclei fraction (RPMI7951) [%]	cleaved PARP positive nuclei fraction (RVH-421) [%]	cleaved PARP positive nuclei fraction (SkMel28) [%]	cleaved PARP positive nuclei fraction (SkMel2) [%]	cleaved PARP positive nuclei fraction (SkMel30) [%]	cleaved PARP positive nuclei fraction (UACC62) [%]	cleaved PARP positive nuclei fraction (WM115) [%]	cleaved PARP positive nuclei fraction (WM1716) [%]	cleaved PARP positive nuclei fraction (WM1745) [%]	cleaved PARP positive nuclei fraction (WM3526) [%]	cleaved PARP positive nuclei fraction (WM3619) [%]	cleaved PARP positive nuclei fraction (WM451Lu) [%]
CCCCCCCCCCCCCCCCCCOP(=O)([O-])OC1CC[N+](C)(C)CC1 [Perifosine] + Cn1nnc2c(C(N)=O)ncn2c1=O [temozolomide] (first compound 0.4 µM, partner dose 2 µM)	93.7	50.8	53.6	57	199	50.1	53.2	165	24.3	39	81.6	40.8	95.5	93.6
O=C(/C=C/c1cccnc1)NCCCCC1CCN(C(=O)c2ccccc2)CC1 + COc1ccc(Cl)c(Nc2nc3ccccc3nc2NS(=O)(=O)c2cccc(NC(=O)C(C)(C)N)c2)c1 [XL147] (first compound 0.01 µM, partner dose 0.8 µM)	454	84.7	36	185	244	4790	59.7	90.9	40.4	99.4	93.9	70.9	116	64.3
CCCCCCCCCCCCCCCCCCOP(=O)([O-])OC1CC[N+](C)(C)CC1 [Perifosine] + C#Cc1cccc(Nc2ncnc3cc(OCCOC)c(OCCOC)cc23)c1 [erlotinib] (first compound 0.4 µM, partner dose 0.8 µM)	46.1	106	260	170	73.7	102	82.2	116	442	39.1	105	54.8	105	91.5
O=C(/C=C/c1cccnc1)NCCCCC1CCN(C(=O)c2ccccc2)CC1 + CS(=O)(=O)c1ccc(C(=O)Nc2ccc(Cl)c(-c3ccccn3)c2)c(Cl)c1 [vismodegib] (first compound 0.01 µM, partner dose 1 µM)	482	117	86.3	367	83	2110	95.4	99.3	97.4	97.7	94.8	81.3	118	48.8
COc1cc([C@@H]2c3cc4c(cc3[C@@H](O[C@@H]3O[C@@H]5CO[C@@H](C)O[C@H]5[C@H](O)[C@H]3O)[C@H]3COC(=O)[C@H]23)OCO4)cc(OC)c1O [etoposide] + Nc1cccc2c1CN(C1CCC(=O)NC1=O)C2=O [lenalidomide] (first compound 0.02 µM, partner dose 1 µM)	172	138	144	378	89.2	50.8	135	61.9	95.2	45.7	115	98.1	134	98.2
Cc1cc(Nc2cc(N3CCN(C)CC3)nc(Sc3ccc(NC(=O)C4CC4)cc3)n2)n[nH]1 [Tozasertib] + O=C(O)[C@@H]1[O][Sb](=[O])([O][Sb]2(=[O])[O][C@H]([C@H](O)CO)[C@H](O)[C@H](C(=O)O)[O]2)[O][C@H]([C@H](O)CO)[C@@H]1O [stibogluconate] (first compound 0.006 µM, partner dose 2 µM)	64.8	132	59.4	89.4	28.6	123	63.5	24.2	83.6	71.4	108	131	100	26.4
Cc1cn(-c2cc(NC(=O)c3ccc(C)c(Nc4nccc(-c5cccnc5)n4)c3)cc(C(F)(F)F)c2)cn1 [nilotinib] + COc1ccc(Cl)c(Nc2nc3ccccc3nc2NS(=O)(=O)c2cccc(NC(=O)C(C)(C)N)c2)c1 [XL147] (first compound 0.2 µM, partner dose 0.8 µM)	40.9	127	90.6	130	74.2	60.6	97.5	54.6	60.2	111	110	34.6	90.2	133
N#CC[C@H](C1CCCC1)n1cc(-c2ncnc3[nH]ccc23)cn1 [ruxolitinib] + Nc1cccc2c1CN(C1CCC(=O)NC1=O)C2=O [lenalidomide] (first compound 1 µM, partner dose 1 µM)	96.4	11.2	641	59.2	94.5	74.5	78.3	89.8	43.9	35.6	90.6	36.9	75	71.6
N#CC[C@H](C1CCCC1)n1cc(-c2ncnc3[nH]ccc23)cn1 [ruxolitinib] + C[C@@H](N)c1ccc(C(=O)Nc2ccnc3[nH]ccc23)cc1 [RKI983] (first compound 1 µM, partner dose 0.4 µM)	164	221	110	156	210	70.3	74.3	25.7	33.4	163	108	31.5	77.2	102
